Test results taken from patent US11566030B2, “Substituted 2,6-dihydropyrrolo[3,4-c]pyrazoles as pyruvate kinase activators” (priority 2021, dated 2023).
The structures given here were assigned with low confidence; some may be wrong.

The chains behind the UniProt entries cited, without tags or fusion partners. Residues count along the entry.
UniProt P30613, 14-574 limits assumed: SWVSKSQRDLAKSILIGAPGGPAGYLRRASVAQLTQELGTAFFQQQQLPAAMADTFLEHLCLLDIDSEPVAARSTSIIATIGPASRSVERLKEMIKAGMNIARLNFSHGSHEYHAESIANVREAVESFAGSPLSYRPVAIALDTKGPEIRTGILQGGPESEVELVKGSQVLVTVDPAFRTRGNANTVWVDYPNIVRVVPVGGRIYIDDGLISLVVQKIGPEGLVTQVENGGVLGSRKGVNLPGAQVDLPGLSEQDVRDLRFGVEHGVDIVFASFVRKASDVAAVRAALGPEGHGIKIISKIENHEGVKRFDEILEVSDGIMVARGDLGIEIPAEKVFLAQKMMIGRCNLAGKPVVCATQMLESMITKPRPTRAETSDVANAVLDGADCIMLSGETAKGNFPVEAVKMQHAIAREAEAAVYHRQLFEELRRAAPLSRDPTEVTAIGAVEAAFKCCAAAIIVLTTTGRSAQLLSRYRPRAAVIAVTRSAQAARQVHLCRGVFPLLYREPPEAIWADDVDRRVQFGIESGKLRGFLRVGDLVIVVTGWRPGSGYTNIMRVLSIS

Target: Human pyruvate kinase R (PKR) (Homo sapiens, UniProt P30613)
Assay: Biochemical assay for activation of pyruvate kinase R (Kinase-Glo luminescence, ATP generation)
Settings: for PKR % activation: maximal activation level achieved with each compound relative to the activation level achieved by AG-348 @ 10 μM; for AC50: read-out: PKR AC50, 0.1 nM PKR, 0.3 mM ADP, 0.1 mM PEP, 1% DMSO

SMILES	PKR % activation	AC50
O=C([C@@H](CO)c1ccccc1F)N1Cc2cn(S(=O)(=O)c3ccn(CC(F)F)n3)nc2C1	119%	0.046 µM
CCOc1nc(C)c(S(=O)(=O)n2cc3c(n2)CN(C(=O)[C@H](CO)c2ccccc2)C3)s1 (single isomer, unassigned)	51%	0.011 µM
COc1nc(C)c(S(=O)(=O)n2cc3c(n2)CN(C(=O)[C@H](CO)c2ccccc2)C3)s1 (single isomer, unassigned)	73%	0.022 µM
Cc1nc(OCC(F)F)sc1S(=O)(=O)n1cc2c(n1)CN(C(=O)[C@H](CO)c1ccccc1)C2 (single isomer, unassigned)	0%	0.57 µM
